The text below walks through data of US20030203888A1, “Chromophores” (priority 2001, published 2003).

Data set [1] has as its system HeLa cells. Put plainly: Transfer of non-covalently protein-bound fluorophore to HeLa cells. Particulars: for increase in fluorescence on re-suspension of the cells: HeLa cells after 20 min incubation with non-covalent fluorophore-protein complexes. Type of data set: cell-based, human.
Data set [2] relates to HeLa cells. In words: Confocal laser scanning microscopy of intracellular localisation. The format is cell-based, human. Particulars: 514 nm excitation; for cellular localisation: Z-series fluorescence images.

“Also recorded” adds a separate entry of the source.

In the case of `COc1ccc(-c2c3nc(cc4ccc([nH]4)c(-c4ccc(NC(C)=O)cc4)c4nc(cc5ccc2[nH]5)C=C4)C(O)C3O)cc1` (stereo not shown) [Example 10, 17,18-Dihydroxy-5-(4-acetamidophenyl)-15-(4-methoxyphenyl)chlorin], the “increase in fluorescence on re-suspension of the cells” value in the data set on HeLa cells [1] amounted to 10 fold. The “removal of fluorescence from the solution with removal of the HeLa cells” value in the data set with HeLa cells [1] (non-covalent fluorophore-protein complexes (BSA or avidin), incubated 20 min) is on record as “much more marked”. For the molecule `COc1ccc(-c2c3nc(cc4ccc([nH]4)c(-c4ccc(NC(C)=O)cc4)c4nc(cc5ccc2[nH]5)C(O)C4O)C(O)C3O)cc1` (stereo not shown) [Example 12, 7,8,17,18-tetrahydroxy-5-(4-acetamidophenyl)-15-(4-methoxyphenyl)bacteriochlorin], the “increase in fluorescence on re-suspension of the cells” value with HeLa cells [1] is “modest increase”. For `Nc1ccc(-c2c3nc(c(-c4cc(O)cc(O)c4)c4ccc([nH]4)c(-c4cc(O)cc(O)c4)c4nc(c(-c5cc(O)cc(O)c5)c5ccc2[nH]5)C=C4)C=C3)cc1` [OH6-NH2, 5-(4-Aminophenyl)-10,15,20-tris(3,5-dihydroxyphenyl)porphyrin], in the data set with HeLa cells [2], the “cellular uptake / penetration” value is on record as “not found to penetrate the cellular membrane” and the cellular localisation entry is “localised on the plasma membrane”. Consider “OH6-NCS-BSA: conjugate of 10,15,20-tris(3,5-dihydroxyphenyl)5-isothiocyanatophenylporphyrin (OH6-NCS) with BSA”, for which, in the data set with HeLa cells [2], the “cellular uptake / penetration” value is listed as “had entered the cell; also recorded: good conjugate penetration” and the cellular localisation result is “largely distributed throughout the cytoplasm”.
